In PMC4245848, “The Aspergillus nidulans Zn(II)2Cys6 transcription factor AN5673/RhaR mediates L-rhamnose utilization and the production of α-L-rhamnosidases”:

Target: T1, His6::RhaR (1-159*) (Aspergillus nidulans (cDNA from strain AR198)) (UniProt A0A0A1I536)
T1 sequence: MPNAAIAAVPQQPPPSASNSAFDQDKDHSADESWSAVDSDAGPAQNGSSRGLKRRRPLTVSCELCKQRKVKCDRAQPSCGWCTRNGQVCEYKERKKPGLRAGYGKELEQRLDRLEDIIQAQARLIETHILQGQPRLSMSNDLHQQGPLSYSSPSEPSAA
Assay: EMSA
Conditions: 0-1.2 ug protein, 100 ng DNA; 25 mM HEPES pH 7.9, 50 mM KCl, 5 mM MgCl2, 1 mM DTT, 0.1 mM EDTA, 1 ug salmon sperm DNA, 20 ul, 4 C 30 min; 5-8% native PAGE in 0.5x TBE at 4 C, ethidium bromide; recombinant protein; protein details: N-terminal His6 (pQE-80L); probe letters rebuilt from the primers and the genome

## CTAGCATTACTTCCTTGGGACATTAGAGTCAAGCACGAAATATCTCTTGTCTGGATTGTAATAGGCCGGGACTGTTTAGCCTTGGGCAACATATACCCAAAAGGATGTATGTCTCCCATAGCGTTCTAGTGCGTTAACCCTAACTGCCTATCAACGTTCCGGTATAGAGTTCACAACTTCGCCATTGCAATCTTCGACTAATTTCTTCTTCACATTCTTTATGCATATATCGTCATACGCTATTCTGACACTCTTTTTTTTACCCCGCATTCCTCGGCGTCCGTGGTTCTCGCCGAGTAGCCGACTGCAGATCTTCTCGGGGGAAGATCGACCGACCTGGTCCTGCAGAGCTCCAAGGCTTCCTCTCAGAAAGCCGATTAGTAGAAGCGGAGTCAAAGCAGGGTCAAGACGGACAATTAGAAGCCATGAATGGCGGATCCCAGCCCATGATCGCATACTGTGATCCAAAATCGACATAACTAAGTCACTTCCCTTCGCTTGTATCTGCCCAGCCATCCAACAACTCTA (double strand) [rhaAp 528 bp]
  binding result: binds

Where a protein sequence is shown, tags need not be part of it.
